Experimental data reported in article PMC12016516.

Sequences of proteins named here, by UniProt entry; tags and fusion partners are left off. A change or cut given only in a name is not applied to a line headed by its entry.
UniProt Q5JIK0: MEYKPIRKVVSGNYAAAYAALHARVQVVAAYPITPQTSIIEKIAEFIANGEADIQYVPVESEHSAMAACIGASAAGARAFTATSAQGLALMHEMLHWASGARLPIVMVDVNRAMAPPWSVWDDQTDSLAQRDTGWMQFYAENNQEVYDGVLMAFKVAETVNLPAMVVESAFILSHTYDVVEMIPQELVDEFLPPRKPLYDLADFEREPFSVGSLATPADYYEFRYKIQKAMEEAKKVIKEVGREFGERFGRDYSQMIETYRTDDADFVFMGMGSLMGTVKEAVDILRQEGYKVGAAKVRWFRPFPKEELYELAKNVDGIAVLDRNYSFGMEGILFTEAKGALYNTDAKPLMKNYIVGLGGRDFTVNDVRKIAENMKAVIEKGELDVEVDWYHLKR

Columns and labels:
Experiment in all cases: affinity purification with mass spectrometry; HA- and His6-tagged bait made from its native locus, captured from clarified T. kodakarensis lysate on a Ni2+-charged chelating column (buffer A: 10 mM Tris HCl pH 8.0, 500 mM NaCl, 10% glycerol), eluted with an imidazole gradient; pooled fractions identified by MuDPIT LC-MS/MS and compared with the parental strain TS559 (P < 0.05, log2 fold change ≥ 2); cells grown at 85°C with (+S˚) or without (–S˚) elemental sulfur
[1] = molecular target: 2-Oxoisovalerate-ferredoxin oxidoreductase, α subunit (Thermococcus kodakarensis) (UniProt Q5JIK0)
[2] = molecular target: T1, 2-Oxoisovalerate-ferredoxin oxidoreductase, β subunit (Thermococcus kodakarensis) (UniProt Q5JIJ9)
T1 sequence: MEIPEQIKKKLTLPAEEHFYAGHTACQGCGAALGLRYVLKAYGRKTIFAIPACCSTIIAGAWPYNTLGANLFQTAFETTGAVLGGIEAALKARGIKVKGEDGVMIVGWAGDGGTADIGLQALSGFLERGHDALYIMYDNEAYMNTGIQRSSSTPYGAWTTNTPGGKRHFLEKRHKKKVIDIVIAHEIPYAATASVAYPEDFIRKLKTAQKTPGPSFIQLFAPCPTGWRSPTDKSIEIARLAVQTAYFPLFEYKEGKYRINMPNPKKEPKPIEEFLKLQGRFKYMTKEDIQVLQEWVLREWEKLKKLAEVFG

[3] = molecular target: T2, 2-Oxoisovalerate-ferredoxin oxidoreductase, γ subunit (Thermococcus kodakarensis) (UniProt Q5JIK2)
T2 sequence: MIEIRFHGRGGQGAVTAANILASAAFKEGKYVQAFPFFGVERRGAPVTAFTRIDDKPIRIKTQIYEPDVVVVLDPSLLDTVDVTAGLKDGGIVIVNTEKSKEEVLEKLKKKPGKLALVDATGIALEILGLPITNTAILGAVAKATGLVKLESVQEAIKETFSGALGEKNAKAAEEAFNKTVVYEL

[4] = molecular target: T3, Indolepyruvate-Fd oxidoreductase, β subunit (Thermococcus kodakarensis) (UniProt O07836)
T3 sequence: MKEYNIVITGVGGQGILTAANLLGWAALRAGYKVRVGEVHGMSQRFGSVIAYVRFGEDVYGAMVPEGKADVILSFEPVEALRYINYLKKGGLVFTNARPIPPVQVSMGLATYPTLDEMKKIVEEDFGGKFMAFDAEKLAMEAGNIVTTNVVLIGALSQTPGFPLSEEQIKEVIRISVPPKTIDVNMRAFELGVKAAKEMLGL

[5] = molecular target: T4, Indolepyruvate-Fd oxidoreductase, α subunit (Thermococcus kodakarensis) (UniProt O07835)
T4 sequence: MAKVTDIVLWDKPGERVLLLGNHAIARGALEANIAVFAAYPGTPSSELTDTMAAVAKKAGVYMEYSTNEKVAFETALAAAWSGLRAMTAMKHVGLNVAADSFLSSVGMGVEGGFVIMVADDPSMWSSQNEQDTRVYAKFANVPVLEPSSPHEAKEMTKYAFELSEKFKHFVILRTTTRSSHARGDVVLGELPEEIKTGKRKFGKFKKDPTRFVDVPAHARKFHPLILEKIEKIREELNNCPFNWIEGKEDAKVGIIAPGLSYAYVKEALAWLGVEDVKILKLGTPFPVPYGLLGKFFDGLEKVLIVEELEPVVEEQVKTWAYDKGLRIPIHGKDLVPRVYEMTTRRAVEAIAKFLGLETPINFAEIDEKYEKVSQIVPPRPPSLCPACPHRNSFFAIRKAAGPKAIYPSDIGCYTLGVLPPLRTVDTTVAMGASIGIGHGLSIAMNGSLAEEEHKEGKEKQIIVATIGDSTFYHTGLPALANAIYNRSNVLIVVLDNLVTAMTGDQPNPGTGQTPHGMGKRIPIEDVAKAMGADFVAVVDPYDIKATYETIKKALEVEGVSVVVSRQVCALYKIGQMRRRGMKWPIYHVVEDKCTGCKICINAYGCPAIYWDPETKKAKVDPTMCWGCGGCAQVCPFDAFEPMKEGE

[6] = molecular target: T5, Formate dehydrogenase, [4Fe-4S] cluster-binding protein, FDHγ3 (Thermococcus kodakarensis) (UniProt Q5JHV9)
T5 sequence: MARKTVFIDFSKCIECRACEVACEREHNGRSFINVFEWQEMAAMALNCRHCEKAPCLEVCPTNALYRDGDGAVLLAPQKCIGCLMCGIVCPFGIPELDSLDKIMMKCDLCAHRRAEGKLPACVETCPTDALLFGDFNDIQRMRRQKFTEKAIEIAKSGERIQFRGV

[7] = molecular target: T6, [4Fe-4S] cluster-binding protein associated with FDH, FDHγ2 (Thermococcus kodakarensis) (UniProt Q5JHW1)
T6 sequence: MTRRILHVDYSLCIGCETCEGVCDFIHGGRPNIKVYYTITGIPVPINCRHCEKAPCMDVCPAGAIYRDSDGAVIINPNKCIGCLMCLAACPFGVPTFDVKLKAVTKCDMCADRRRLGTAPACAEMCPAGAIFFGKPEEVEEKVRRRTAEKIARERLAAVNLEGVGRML

B1: 2-Oxoisovalerate-ferredoxin oxidoreductase, δ subunit (protein, UniProt Q5JIK1 1-105)
chain: MNTLFGEKKAEAKKIVLTSVDQYPEAPISLGTTLSNFTGDWRTFIPVVNEDKCVKCYICWKFCPEPAIYIKPDGYVAIDYDYCKGCGICANECPTKAITMEKEEK
B1 was tested, and the binding [1] was “binds”, the binding [2] was “binds” and the binding [3] was “binds”.

B2: Indolepyruvate-Fd oxidoreductase, α subunit (protein, UniProt O07835 1-647)
chain: T4 sequence
For B2, the binding [4] was “binds”.

B3: IORβ2 (TK2244) (protein, UniProt Q5JHR4 1-194)
chain: MEFNLIITGVGGQGGLTLSRIVGNAAMVEGYNVRIGETLGMSQRYGSVLSYLRFGEEVYSPLIEEGEADLMLALEPAEALRNARFLSRKSHAIINAYPIHTATTLVGKERYPELNEIKEAIGRICPVDMLDFQKEADKINPRTLGVLMLGYAYGKGLIPLRKESILEGIKLTLREKLWEMNFRAFERGVELSKE
B3 was tested, and the binding [5] was “binds” and the binding [4] was “binds”.

B4: [4Fe-4S] cluster-binding protein associated with FDH, FDHγ2 (protein, UniProt Q5JHW1 1-168)
chain: T6 sequence
B4 was tested, and the binding [6] was “binds”.

B5: [4Fe-4S] cluster-binding protein associated with FDH, FDHγ4 (protein, UniProt Q5JHV8 1-162)
chain: MPETLKCSLIPLEHLPNGLGVPQIDPELCIGCGACVNVCPAGALQAIDDYMEGIRKISLNIGKCTPCTRCEEVCPTGAIKIATFEVISLRKRAYVEVVELRLHLCPGCGNYADYTERSLEKSLQMLSEGMFDRDEIVGRAVLCRSCRRKLTVNETMRASREG
In the case of B5, the binding [6] is reported as “binds”.

B6: glutamate synthase (TK2074) (protein, UniProt Q5JHW2 1-351)
chain: MEGIRFAFLCREKPEPTGKKVAVIGAGPAGLAATGYLVCQGHEVHVYDKLPEPGGLMLFGIPEFRIPIYRVREGYKELEKVYNVKFFTRTKVCFGNPKESGDEFVERRIEFEEILKNYDAVLIATGTWNAYVPTIPGSDLEGVYPALEYLFRIKSAKLGHMDWSEVPPVEGRKVLVVGAGHSAVDAALESINLGAEKVYMSYRRTIREAPAGAYEINLLQQRGVKWLERTMPVRIIGENGRVRAVELVKTELSEPDETGRRRPIPIEGSNFQIEVDYMVCAVGQMPTPPFSKEMGIALDRKGRIVVDSRHMTSREGVFAAGDVVLGPSKVGRAVKDGLYAAESIHLWLMGR
B6 was tested, and the binding [6] was “binds” and the binding [7] was “binds”.

B7: IORα2 (TK1643) (protein, UniProt Q5JIU3 1-637)
chain: MEALKNAPSNASLGVSAKKERKLLMGNEAIAYGALESGVVFATGYPGTPSTEVIETIARLKPEVFAEWAPNEKVALEEAAGVAYTGLRALVTMKCVGLNVAADPLMSLAYSGVEGGLVILVADDPGPHTSQTEQDDRYYGKISLLPVLEPADPQEAHDLIKYAYELSERYKVPIIFRTTTRVNHTTADVEVGEFVELNRKPVFKKDIERYVRASMEGNRKRHKWLNETLRKIEEEFNEMPFNWVEGKEDAKLGIIVEGAPYNYVKEVLPKINAEFKVLKLSTPHPLPKKLVVEFLKTVEEAIVIEDGAPFLEEEVKIAAYEAGLNVPIYGKRTGHLPLEGELTPSLVRNALLKVIGEESEEYVKPEEVAYAENLAPKRPPVMCPGCPHRGSYRAVLDALRDLKLGRYKVPIHGDIGCYALSLLPPLEAIWTEYVMGASISLANGQSVVMDKKIIATIGDSTFFHNGIQPLIDAVYKNLNVLVMILDNRTTAMTGHQPHPGTGGSETGRKFNEIDIEALVKALGVKYVKTVDPYDLKATREAIKEAMQIEGPAVIIAKRECVIPVIRRGEIGELPVVIEDKCTGCKACILLTGCPALVYDPETKKVRIDELLCTGCGVCNQTCPFDAIKFPSELKKGA
For B7, the binding [5] was “no binding” and the binding [4] was “no binding”.

No constants are given. Whether binding was seen depends on the method and setting. In cells and extracts the contact can be indirect. These calls come from enrichment with a bait or labelling near it, and not all partners need be listed. For part of these data: A no says only that the protein was not detected with the bait.
